The values that follow come from the supplement of paper PMC6289059.

SMILES strings stand for the structures. The list shows a part of the results. Single values are uncertain, as repeats are few or missing.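 The cells are hepatocyte-like cells grown from human stem cells in which the DGUOK gene was disrupted by CRISPR, a model of liver mtDNA depletion syndrome. Each well's ATP signal was scored against the other wells on its plate, and a drug counted as a primary hit when its score was 3 or higher.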

This assay deals with DGUOK Δ14/Δ5 iPSC-derived hepatocyte-like cells (SV20). The assay can be described thus: ATP level (CellTiter-Glo luminescence) Z score relative to plate distribution, under 2-DG glycolysis block; higher = more cellular ATP (rescue of mitochondrial ATP production). The conditions noted are these: 5 µM; treatment time: day 15 to day 20 of differentiation (5 days); 2-deoxy-D-glucose: 20 mM for 24 h before assay.
Turning to `CCOC(=O)CC(SP(=S)(OC)OC)C(=O)OCC` (stereo not drawn), the ATP level was inactive: 0.736.

As to `CC(N)Cc1ccc(O)cc1` (stereo not drawn), the ATP level was inactive: -2.2.

Consider `CC(NC(C)(C)C)C(=O)c1cccc(Cl)c1` (stereo not drawn), for which the ATP level is inactive: -0.0982.

On to `NCc1cccnc1`, for which the ATP level is inactive: -0.0605.

In the case of `O=C(O)CCCO`, the ATP level was inactive: 0.0317.

On to `CN(C)[C@@H]1C(=O)C(C(N)=O)=C(O)[C@@]2(O)C(=O)C3=C(O)c4c(O)cccc4[C@@](C)(O)[C@H]3C[C@@H]12`, for which the ATP level was inactive: -1.52.

Regarding `NCC(O)c1ccc(O)cc1` (stereo not drawn), the ATP level is inactive: 0.164.

On to `O=C1c2ccccc2-c2cccc3cccc1c23`, for which the ATP level was inactive: -3.64.

Consider `O=c1c2ccccc2[se]n1-c1ccccc1`, for which the ATP level is inactive: -7.08.

On to `Cc1ccc(/N=C/N(C)/C=N/c2ccc(C)cc2C)c(C)c1`, for which the ATP level is inactive: -0.263.

Turning to `C[C@]12CC[C@H]3[C@@H](CCC4=CC(=O)CC[C@@]43C)[C@@H]1CC[C@@H]2O`, the ATP level is inactive: 0.419.

Take `c1ccc2c(c1)Nc1ccccc1S2`: the ATP level was inactive: -3.77.

Take `C[C@]12CCC(=O)C[C@@H]1CC[C@@H]1[C@@H]2CC[C@]2(C)C(=O)CC[C@@H]12` [5alpha-ANDROSTAN-3,17-DIONE]: the ATP level was inactive: -1.43.

With `CCSCC[C@H](N)C(=O)O`, the ATP level was inactive: -0.239.

With `CNC(=O)CSP(=S)(OC)OC`, the ATP level was inactive: 0.917.

For the molecule `C=CCN1CC[C@]23c4c5ccc(O)c4O[C@H]2C(=O)CC[C@@]3(O)[C@H]1C5`, the ATP level was inactive: -1.01.

With `O=c1n(Cl)c(=O)n(Cl)c(=O)n1Cl`, the ATP level was inactive: 2.27.

`C=CCc1ccc2c(c1)OCO2`: the ATP level is inactive: 0.12.

As to `CNC1CC(N)C(O)C(OC2OC(CO)C(O)C3OC4(OC(C(N)CO)C(O)C(O)C4O)OC23)C1O` (stereo not drawn), the ATP level was active: 3.19.

Regarding `COP(=O)(OC)C(O)C(Cl)(Cl)Cl` (stereo not drawn), the ATP level is inactive: 1.61.

For the molecule `COP(=O)(OC)OC=C(Cl)Cl`, the ATP level was inactive: 0.872.

With `S=C=NCc1ccccc1`, the ATP level is inactive: -0.0139.

Regarding `C[C@]12CCC(=O)C=C1C=C[C@@H]1[C@@H]2CC[C@@]2(C)[C@H]1CC[C@@]2(O)CCC(=O)O`, the ATP level is inactive: 1.93.

On to `CCNc1nc(Cl)nc(NCC)n1`, for which the ATP level was inactive: 0.489.

In the case of `Cc1cccc(C)c1NC(=O)CN1CCCC1=O`, the ATP level was inactive: -1.97.

As to `CO[C@H]1[C@H](O)[C@H](O[C@H]2CC[C@@]3(C=O)[C@H](CC[C@@H]4[C@@H]3CC[C@]3(C)[C@@H](C5=CC(=O)OC5)CC[C@]43O)C2)O[C@@H](C)[C@@H]1O`, the ATP level was inactive: -9.25.

In the case of `CC[C@@H](C(=O)[C@@H](C)[C@@H](O)[C@H](C)[C@@H]1O[C@@H]([C@@H](CC)C(=O)O)CC[C@@H]1C)[C@H]1O[C@]2(C=C[C@@H](O)[C@]3(CC[C@@](C)([C@H]4CC[C@](O)(CC)[C@H](C)O4)O3)O2)[C@H](C)C[C@@H]1C`, the ATP level is inactive: -13.3.

`CC(=O)O[C@@H]1[C@H]2CC[C@H]3[C@@](C)(O)[C@@H]4C[C@H](O)C(C)(C)[C@@]4(O)[C@H](O)C[C@@]13C[C@@]2(C)O`: the ATP level was inactive: 1.33.

For the molecule `N[C@H](CO)Cc1ccccc1`, the ATP level is inactive: -0.686.

As for `Cc1[nH]c2ccccc2c1CN(C)C`, the ATP level was inactive: -2.28.

For the molecule `CC(C)c1cc2c(c(O)c1O)[C@@]1(C(=O)O)CCCC(C)(C)[C@@H]1CC2`, the ATP level was inactive: -2.19.

Consider `CC(C)c1cccc(C(C)C)c1O`, for which the ATP level is inactive: -1.78.

Regarding `COC1=CC(=O)O[C@@H](/C=C/c2ccccc2)C1`, the ATP level is inactive: 2.31.

For `Oc1ccc2c3c1O[C@H]1[C@@H](O)CC[C@@]4(O)[C@@H](C2)N(CC2CCC2)CC[C@]314`, the ATP level was inactive: 0.361.

Regarding `O=C(O)CC[N+](=O)[O-]`, the ATP level is inactive: -0.0459.

As for `CN1CCc2cc3c(cc2[C@H]1[C@@H]1OC(=O)c2c1ccc1c2OCO1)OCO3`, the ATP level is inactive: 1.18.

In the case of `CC(=O)O[C@H]1CC[C@@]2(C)C(=CC[C@@H]3[C@@H]2CC[C@]2(C)C(=O)CC[C@@H]32)C1`, the ATP level was inactive: 0.329.

With `CN1C[C@H](CNC(=O)OCc2ccccc2)C[C@@H]2c3cccc4c3c(cn4C)C[C@H]21`, the ATP level was inactive: -3.6.

For the molecule `CC[C@@H](CO)NC(=O)[C@@H]1C=C2c3cccc4c3c(cn4C)C[C@H]2N(C)C1`, the ATP level is inactive: -0.491.

As to `N#C[C@H](O[C@@H]1O[C@H](CO[C@@H]2O[C@H](CO)[C@@H](O)[C@H](O)[C@H]2O)[C@@H](O)[C@H](O)[C@H]1O)c1ccccc1`, the ATP level is inactive: 1.54.

Take `COc1cc2c(c(OC)c1OC)-c1ccc(OC)c(=O)cc1[C@@H](NC(C)=O)CC2`: the ATP level was inactive: -4.94.

Turning to `CC[C@@]1([C@H]2O[C@H]([C@H]3O[C@@](O)(CO)[C@H](C)C[C@@H]3C)C[C@H]2C)CC[C@H]([C@@]2(C)CC[C@]3(C[C@H](O)[C@@H](C)[C@@H]([C@H](C)[C@H](OC)[C@@H](C)C(=O)O)O3)O2)O1` [MONENSIN SODIUM (monensin A is shown)], the ATP level was inactive: -13.9.

Regarding `C[C@]12CC[C@H](O)CC1=CC[C@@H]1[C@@H]2CC[C@]2(C)C(=O)CC[C@@H]12`, the ATP level was inactive: 0.515.

`C[C@@H]1C[C@H](O)[C@@]2(O)[C@]13CC(=O)OC[C@@]2(C)[C@@](C)(O)C(=O)C3`: the ATP level is inactive: 1.62.

Consider `CC[N+]1(C)CCCC(OC(=O)C(O)(c2ccccc2)c2ccccc2)C1` (stereo not drawn), for which the ATP level was inactive: -0.317.

As for `c1ccc2c(c1)OCC(C1=NCCN1)O2` (stereo not drawn), the ATP level was inactive: 0.297.

On to `N#Cc1c(Cl)c(Cl)c(Cl)c(C#N)c1Cl`, for which the ATP level is inactive: 1.94.

In the case of `Cc1cc(C(C#N)c2ccc(Cl)cc2)c(Cl)cc1NC(=O)c1cc(I)cc(I)c1O` (stereo not drawn), the ATP level was inactive: -1.85.

On to `COc1ccc2c(c1OC)C(=O)O[C@@H]2[C@H]1c2cc3c(cc2CCN1C)OCO3`, for which the ATP level was inactive: 0.181.

With `O=C(O)c1nn(Cc2ccc(Cl)cc2Cl)c2ccccc12`, the ATP level is inactive: 1.47.

As to `C[N+]12CC[C@@]34c5ccccc5N5C(=O)C[C@@H]6OCC=C(C1)[C@H](C[C@@H]32)[C@@H]6[C@H]54` (stereo partly drawn), the ATP level is inactive: -3.71.

Turning to `COc1cc2c(cc1O)CCN[C@@H]2C`, the ATP level was inactive: 1.59.

Take `C[C@@H]1C[C@@H]([C@H](O)CC2CC(=O)NC(=O)C2)C(=O)[C@@H](C)C1`: the ATP level was inactive: -5.66.

In the case of `O=C(NC(=O)c1c(F)cccc1F)Nc1ccc(Cl)cc1`, the ATP level was inactive: -6.2.

With `COc1cc2c(cc1OC)[C@@H]1C(=O)c3ccc4c(c3O[C@@H]1CO2)CC(C(C)C)O4` (stereo partly drawn), the ATP level was inactive: -14.

Take `CCC1(C2=NCCN2)Cc2ccccc2O1` (stereo not drawn): the ATP level is inactive: 0.636.

Regarding `CC[C@@H](CO)NC(=O)[C@@H]1C=C2c3cccc4[nH]cc(c34)C[C@H]2N(C)C1`, the ATP level was inactive: -1.24.

As for `CCCCOC(=O)c1ccccc1C(=O)OCCCC`, the ATP level was inactive: -0.37.

As for `CCC(C)C(=O)OC1CC2(C)C(c3ccoc3)OC(=O)CC23OC2(C)OC34C(OC(=O)C(C)C)C3(O)C(OC(=O)C5(C)OC5C)C5(C)CC3(O)C(C)(C5CC(=O)OC)C14O2` (stereo not drawn), the ATP level was inactive: -0.983.

Take `C[N+]1(C)CCc2cc3c(cc2[C@H]1[C@@H]1OC(=O)c2c1ccc1c2OCO1)OCO3`: the ATP level was inactive: -0.792.

As for `C=CCc1cc(OC)c2c(c1OC)OCO2`, the ATP level was active: 3.08.

Regarding `c1cncc([C@@H]2CCCCN2)c1`, the ATP level was inactive: 0.245.

In the case of `CC(=O)O[C@H]1C(=O)[C@@]2(C)[C@H]([C@H](OC(=O)c3ccccc3)[C@]3(O)C[C@H](O)C(C)=C1C3(C)C)[C@]1(OC(C)=O)CO[C@@H]1C[C@@H]2O`, the ATP level is inactive: 2.54.

With `CC(C)(C#N)O[C@@H]1O[C@H](CO)[C@@H](O)[C@H](O)[C@H]1O`, the ATP level is inactive: -0.523.

Regarding `CC(C)(O)[C@@H]1[C@H]2OC(=O)[C@@H]1[C@]1(O)C[C@H]3O[C@]34C(=O)O[C@H]2[C@]14C`, the ATP level was inactive: -0.554.

In the case of `C=C(C)[C@H]1Cc2c(ccc3c(=O)c4c(oc23)COc2cc(OC)c(OC)cc2-4)O1`, the ATP level is inactive: -1.48.

On to `O=C(O)CF`, for which the ATP level is inactive: -1.64.

`O=C(CCCN1CCC2(CC1)C(=O)NCN2c1ccccc1)c1ccc(F)cc1`: the ATP level is inactive: -0.204.

For the molecule `CC1(C)C(=O)[C@@H]2O[C@@H]2[C@@]2(C)C1C[C@@H](O)[C@]1(C)C2CC[C@@]2(C)[C@H](c3ccoc3)OC(=O)C3OC321` (stereo partly drawn) [1,2alpha-EPOXYDEACETOXYDIHYDROGEDUNIN], the ATP level was inactive: 1.11.

In the case of `COc1cccc(C=O)c1OC`, the ATP level was inactive: -3.04.

For the molecule `O=[N+]([O-])O[C@H]1CO[C@H]2[C@@H]1OC[C@H]2O[N+](=O)[O-]`, the ATP level is inactive: 0.407.

Take `O=c1cccc2n1C[C@@H]1CNC[C@H]2C1`: the ATP level is active: 3.7.

Regarding `NCC1(CC(=O)O)CCCCC1`, the ATP level was inactive: 1.36.

In the case of `COc1cc2ccc(=O)oc2c2ccoc12`, the ATP level was inactive: 1.22.

For the molecule `CC[C@@H](C)C(=O)O[C@H]1[C@H](O)[C@H]2[C@@H](CN3C[C@@H](C)CC[C@H]3[C@@]2(C)O)[C@@H]2C[C@]34O[C@]5(O)[C@@H](OC(=O)[C@@](C)(O)CC)CC[C@@]3(C)[C@@H]5[C@@H](OC(C)=O)[C@@H](OC(C)=O)[C@H]4[C@@]21O`, the ATP level was inactive: 0.924.

In the case of `C=CCc1ccc(OC)cc1`, the ATP level is inactive: 0.697.

`CNC(=O)Oc1cccc2ccccc12`: the ATP level is inactive: 0.355.

With `CCOC(=O)c1cncn1[C@H](C)c1ccccc1`, the ATP level was inactive: -1.56.
